Test results reported in US20100120798A1, “SUBSTITUTED PIPERIDINES CONTAINING A HETEROARYLAMIDE OR HETEROARYLPHENYL MOIETY” (ASTEX THERAPEUTICS LIMITED, priority 2006, published 2010).
pIC50: −log10 of the molar value. Structures can show the parent of a compound that is named as a salt. Some of these results come from one statement about several compounds together.

Sequences of proteins named here, by UniProt entry; tags and fusion partners are left off. A line that says so, or that is headed by a name, gives the form on record, which may keep a tag or linker.
UniProt P31751, with tags, fused parts or gaps limits assumed: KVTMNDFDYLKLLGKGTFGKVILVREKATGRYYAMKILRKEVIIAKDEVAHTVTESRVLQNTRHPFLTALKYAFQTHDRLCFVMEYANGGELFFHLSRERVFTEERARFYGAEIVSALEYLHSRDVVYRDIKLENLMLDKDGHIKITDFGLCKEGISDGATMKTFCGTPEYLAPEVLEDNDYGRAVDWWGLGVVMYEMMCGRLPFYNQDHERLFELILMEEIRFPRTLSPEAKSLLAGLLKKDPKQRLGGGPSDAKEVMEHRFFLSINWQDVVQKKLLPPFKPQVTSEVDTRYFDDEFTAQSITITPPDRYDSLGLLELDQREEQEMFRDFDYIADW

biological target: T1, protein kinase B (PKB), fusion protein PKB-PIF (Homo sapiens, UniProt P31751); experiment: Measurement of PKB kinase inhibitory activity (IC50); assay type: biochemical; settings: 0.6 nM enzyme, 30 μM ATP, 25 μM AKTide-2T substrate, 20 minutes
T1 construct: PIF (fusion partner; by own knowledge the PRK2 hydrophobic-motif peptide at the C-terminus); made in house

pIC50, > 6.00:
NCC1(C(=O)NCc2ccc(Cl)nc2)CCN(c2ncnc3[nH]ccc23)CC1 [Example 1, 4-Aminomethyl-1-(7H-pyrrolo[2,3-d]pyrimidin-4-yl)-piperidine-4-carboxylic acid (6-chloro-pyridin-3-ylmethyl)-amide]
NC1(C(=O)Nc2cccc(-c3nc4ccccc4o3)c2)CCN(c2ncnc3[nH]c(=O)[nH]c23)CC1 [Example 2, 4-Amino-1-(8-oxo-8,9-dihydro-7H-purin-6-yl)-piperidine-4-carboxylic acid (3-benzooxazol-2-yl-phenyl)-amide]
Cc1ccnc(-c2cccc(NC(=O)C3(N)CCN(c4ncnc5[nH]c(=O)[nH]c45)CC3)c2)c1 [Example 3, 4-Amino-1-(8-oxo-8,9-dihydro-7H-purin-6-yl)-piperidine-4-carboxylic acid [3-(4-methyl-pyridin-2-yl)-phenyl]-amide]
NC1(C(=O)NCc2ccc(Cl)nc2)CCN(c2ncnc3[nH]ccc23)CC1 [Example 4, 4-Amino-1-(7H-pyrrolo[2,3-d]pyrimidin-4-yl)-piperidine-4-carboxylic acid (6-chloro-pyridin-3-ylmethyl)amide]
NC1(C(=O)NCc2ccc(Cl)nc2)CCN(c2ccnc3[nH]ccc23)CC1 [Example 5, 4-Amino-1-(1H-pyrrolo[2,3-b]pyridin-4-yl)-piperidine-4-carboxylic acid (6-chloro-pyridin-3-ylmethyl)-amide]
NCC1(c2cccc(-c3cncc(F)c3)c2)CCN(c2ncnc3[nH]cnc23)CC1 [Example 8, C-[4-[3-(5-Fluoro-pyridin-3-yl)-phenyl]-1-(9H-purin-6-yl)-piperidin-4-yl]-methylamine]
CNCC1(c2cccc(-c3cnn(C)c3)c2)CCN(c2ncnc3[nH]cnc23)CC1 [Example 9, Methyl-[4-[3-(1-methyl-1H-pyrazol-4-yl)-phenyl]-1-(9H-purin-6-yl)-piperidin-4-ylmethyl]-amine]
Cn1cc(-c2cccc(C3(CO)CCN(c4ncnc5[nH]cnc45)CC3)c2)cn1 [Example 10, [4-[3-(1-Methyl-1H-pyrazol-4-yl)-phenyl]-1-(9H-purin-6-yl)-piperidin-4-yl]-methanol]
Cn1cc(-c2cccc(C3(CN)CCN(c4ncnc5[nH]ncc45)CC3)c2)cn1 [Example 13, C-[4-[3-(1-Methyl-1H-pyrazol-4-yl)-phenyl]-1-(1H-pyrazolo[3,4-d]pyrimidin-4-yl)-piperidin-4-yl]-methylamine]
NC1(C(=O)NCc2ccc(C(F)(F)F)nc2)CCN(c2ncnc3[nH]ccc23)CC1 [Example 14, 4-amino-1-(7H-pyrrolo[2,3-d]pyrimidin-4-yl)-piperidine-4-carboxylic acid (6-trifluoromethyl-pyridin-3-ylmethyl)-amide hydrochloride]
Cc1cnc(CNC(=O)C2(N)CCN(c3ncnc4[nH]ccc34)CC2)cn1 [Example 15, 4-amino-1-(7H-pyrrolo[2,3-d]pyrimidin-4-yl)-piperidine-4-carboxylic acid (5-methyl-pyrazin-2-ylmethyl)-amide hydrochloride]
Cc1cc(CNC(=O)C2(N)CCN(c3ncnc4[nH]ccc34)CC2)no1 [Example 16, 4-amino-1-(7H-pyrrolo[2,3-d]pyrimidin-4-yl)-piperidine-4-carboxylic acid (5-methyl-isoxazol-3-ylmethyl)-amide hydrochloride]
Cc1cc(CNC(=O)C2(N)CCN(c3ncnc4[nH]ccc34)CC2)nn1C [Example 17, 4-amino-1-(7H-pyrrolo[2,3-d]pyrimidin-4-yl)-piperidine-4-carboxylic acid (1,5-dimethyl-1H-pyrazol-3-ylmethyl)-amide hydrochloride]
NC1(C(=O)NCc2nc3ccccc3s2)CCN(c2ncnc3[nH]ccc23)CC1 [Example 18, 4-amino-1-(7H-pyrrolo[2,3-d]pyrimidin-4-yl)-piperidine-4-carboxylic acid (benzothiazol,2-ylmethyl)-amide hydrochloride]
NC1(C(=O)NCc2ccc(Cl)cn2)CCN(c2ncnc3[nH]ccc23)CC1 [Example 19, 4-amino-1-(7H-pyrrolo[2,3-d]pyrimidine-4-yl)-piperidine-4-carboxylic acid (5-chloro-pyridin-2-ylmethyl)-amide hydrochloride]
NC1(C(=O)NCc2ccccn2)CCN(c2ncnc3[nH]ccc23)CC1 [Example 20, 4-amino-1-(7H-pyrrolo[2,3-d]pyrimidin-4-yl)-piperidine-4-carboxylic acid (pyridin-2-ylmethyl)-amide hydrochloride]
NC1(C(=O)Nc2cccc(-c3nc4ccccc4o3)c2)CCN(c2ncnc3[nH]ccc23)CC1 [Example 52, 4-Amino-1-(7H-pyrrolo[2,3-d]pyrimidin-4-yl)-piperidine-4-carboxylic acid (3-benzooxazol-2-yl-phenyl)-amide]
NC1(C(=O)Nc2cccc(-c3ncc(F)cn3)c2)CCN(c2ncnc3[nH]ccc23)CC1 [Example 53, 4-Amino-1-(7H-pyrrolo[2,3-d]pyrimidin-4-yl)-piperidine-4-carboxylic acid [3-(5-fluoro-pyrimidin-2-yl)-phenyl]-amide]
Cc1ccnc(-c2cccc(NC(=O)C3(N)CCN(c4ncnc5[nH]ccc45)CC3)c2)c1 [Example 54, 4-Amino-1-(7H-pyrrolo[2,3-d]pyrimidin-4-yl)-piperidine-4-carboxylic acid [3-(4-methyl-pyridin-2-yl)-phenyl]-amide]
CC1(C)CCN(c2cccc(NC(=O)C3(N)CCN(c4ncnc5[nH]ccc45)CC3)c2)CC1 [Example 55, 4-Amino-1-(7H-pyrrolo[2,3-d]pyrimidin-4-yl)-piperidine-4-carboxylic acid [3-(4,4-dimethyl-piperidin-1-yl)-phenyl]-amide]
CC1(C)CCN(c2cccc(NC(=O)C3(N)CCN(c4ncnc5[nH]cnc45)CC3)c2)CC1 [Example 56, 4-Amino-1-(9H-purin-6-yl)-piperidine-4-carboxylic acid [3-(4,4-dimethyl-piperidin-1-yl)-phenyl]-amide]
NC1(C(=O)Nc2cccc(-c3nc4ccccc4o3)c2)CCN(c2ncnc3[nH]cnc23)CC1 [Example 57, 4-Amino-1-(9H-purin-6-yl)-piperidine-4-carboxylic acid (3-benzooxazol-2-yl-phenyl)-amide]
